Drawing on PMC9463353, this text covers binding for one substance.

The chains behind the UniProt entries cited, without tags or fusion partners. Residues count along the entry.
UniProt P14416: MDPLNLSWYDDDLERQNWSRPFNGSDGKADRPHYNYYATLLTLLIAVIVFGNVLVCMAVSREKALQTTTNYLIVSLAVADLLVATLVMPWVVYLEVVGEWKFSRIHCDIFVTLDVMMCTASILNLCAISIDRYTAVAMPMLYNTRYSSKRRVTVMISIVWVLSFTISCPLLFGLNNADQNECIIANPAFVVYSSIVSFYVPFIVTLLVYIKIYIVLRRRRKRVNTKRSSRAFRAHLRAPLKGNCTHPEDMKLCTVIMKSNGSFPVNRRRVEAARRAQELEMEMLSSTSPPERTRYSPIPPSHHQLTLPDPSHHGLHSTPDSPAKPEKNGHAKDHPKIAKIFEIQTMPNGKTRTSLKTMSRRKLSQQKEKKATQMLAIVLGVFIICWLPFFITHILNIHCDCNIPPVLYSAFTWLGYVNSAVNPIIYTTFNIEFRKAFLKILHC
UniProt P31424, residues 21-1203: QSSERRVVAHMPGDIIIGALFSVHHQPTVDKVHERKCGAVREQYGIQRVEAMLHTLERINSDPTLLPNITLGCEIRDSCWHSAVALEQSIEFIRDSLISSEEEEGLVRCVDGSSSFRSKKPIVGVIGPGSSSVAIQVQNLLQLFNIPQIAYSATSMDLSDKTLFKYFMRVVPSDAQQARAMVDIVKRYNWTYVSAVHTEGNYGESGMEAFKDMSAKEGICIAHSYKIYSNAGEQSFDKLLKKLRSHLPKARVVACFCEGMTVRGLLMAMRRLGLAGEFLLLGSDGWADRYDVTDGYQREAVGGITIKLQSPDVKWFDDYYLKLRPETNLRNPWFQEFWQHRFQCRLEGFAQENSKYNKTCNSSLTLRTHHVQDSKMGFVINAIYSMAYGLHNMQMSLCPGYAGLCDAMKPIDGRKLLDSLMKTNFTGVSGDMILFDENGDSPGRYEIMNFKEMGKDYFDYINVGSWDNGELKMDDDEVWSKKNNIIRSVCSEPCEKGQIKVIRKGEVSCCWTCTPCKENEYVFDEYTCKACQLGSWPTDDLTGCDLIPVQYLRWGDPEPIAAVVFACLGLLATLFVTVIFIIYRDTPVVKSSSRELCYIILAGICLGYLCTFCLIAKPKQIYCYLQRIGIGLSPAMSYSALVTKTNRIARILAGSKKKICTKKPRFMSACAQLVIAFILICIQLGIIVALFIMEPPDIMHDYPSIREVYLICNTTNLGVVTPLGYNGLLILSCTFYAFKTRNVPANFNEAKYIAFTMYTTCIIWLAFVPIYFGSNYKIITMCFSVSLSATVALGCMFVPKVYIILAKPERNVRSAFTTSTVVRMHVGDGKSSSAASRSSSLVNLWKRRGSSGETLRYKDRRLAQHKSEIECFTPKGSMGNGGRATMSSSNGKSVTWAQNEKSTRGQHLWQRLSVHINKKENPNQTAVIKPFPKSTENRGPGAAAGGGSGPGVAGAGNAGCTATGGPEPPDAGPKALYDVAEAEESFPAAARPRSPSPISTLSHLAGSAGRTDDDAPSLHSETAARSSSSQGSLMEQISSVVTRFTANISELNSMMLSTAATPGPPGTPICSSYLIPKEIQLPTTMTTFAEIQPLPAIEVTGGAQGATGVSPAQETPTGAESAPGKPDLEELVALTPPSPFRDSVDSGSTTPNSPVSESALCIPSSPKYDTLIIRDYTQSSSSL

Experiment [1] has as its target dopamine D2 receptor expressed in HEK293T cells for in situ PLA, radioligand and cAMP experiments (UniProt P14416). Put plainly: proximity ligation; in situ PLA (Duolink) in transiently co-transfected HEK293T cells; mouse anti-D2R (MABN53) and rabbit anti-mGluR5 (AB5675); without transient co-expression of A2AR.
For experiment [2] the target is unchanged. Put plainly: proximity ligation; in situ PLA (Duolink) in transiently co-transfected HEK293T cells; mouse anti-D2R (MABN53) and rabbit anti-mGluR5 (AB5675); with transient co-expression of A2AR.

These are yes or no findings as the source states them, for the method shown. Binding seen in cells or lysates may run through a third protein. Some entries that bind do so weakly or less than the wild type.

Take “metabotropic glutamate receptor type 5 expressed in HEK293T cells for in situ PLA, radioligand and cAMP experiments (from UniProt P31424 21-1203)”: the binding entry in experiment [1] is “binds weakly”; in experiment [2], “binds”.
